Test results as given in article PMC3095302.
Results are given in words; binding and its absence hold for the method and conditions named.

Columns and labels:
[1] = molecular target: T1, DDB1a (UniProt Q9M0V3); experiment: two-hybrid; yeast two-hybrid assay; bait, prey and conditions not told
T1 sequence: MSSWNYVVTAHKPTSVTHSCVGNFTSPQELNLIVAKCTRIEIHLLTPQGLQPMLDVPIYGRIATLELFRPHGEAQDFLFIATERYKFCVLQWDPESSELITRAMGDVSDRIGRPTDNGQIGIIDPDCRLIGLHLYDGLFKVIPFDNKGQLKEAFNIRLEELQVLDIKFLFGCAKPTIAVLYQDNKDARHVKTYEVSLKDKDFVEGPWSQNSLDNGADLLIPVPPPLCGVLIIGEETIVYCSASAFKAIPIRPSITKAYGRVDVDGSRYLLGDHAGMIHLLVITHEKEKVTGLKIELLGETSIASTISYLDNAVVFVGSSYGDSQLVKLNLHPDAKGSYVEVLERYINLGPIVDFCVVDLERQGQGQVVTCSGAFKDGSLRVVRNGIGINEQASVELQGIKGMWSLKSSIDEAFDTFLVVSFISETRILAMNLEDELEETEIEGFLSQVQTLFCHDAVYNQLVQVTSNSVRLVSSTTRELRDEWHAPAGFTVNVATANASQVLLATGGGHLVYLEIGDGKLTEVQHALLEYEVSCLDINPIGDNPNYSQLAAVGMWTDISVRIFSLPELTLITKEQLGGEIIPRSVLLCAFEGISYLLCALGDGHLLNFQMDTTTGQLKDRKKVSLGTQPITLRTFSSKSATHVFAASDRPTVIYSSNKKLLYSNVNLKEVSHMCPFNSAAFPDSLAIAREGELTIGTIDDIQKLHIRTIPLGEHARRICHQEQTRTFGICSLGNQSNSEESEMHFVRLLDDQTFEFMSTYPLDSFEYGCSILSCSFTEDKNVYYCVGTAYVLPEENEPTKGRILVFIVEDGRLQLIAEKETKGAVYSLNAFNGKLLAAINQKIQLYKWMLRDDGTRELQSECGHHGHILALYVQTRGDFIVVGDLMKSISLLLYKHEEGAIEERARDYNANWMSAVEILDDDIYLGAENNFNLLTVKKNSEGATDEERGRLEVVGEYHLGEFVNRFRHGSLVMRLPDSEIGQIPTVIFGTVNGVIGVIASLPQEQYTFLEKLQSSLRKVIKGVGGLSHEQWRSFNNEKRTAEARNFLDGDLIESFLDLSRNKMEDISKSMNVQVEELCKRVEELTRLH

[2] = molecular target: T2, DDB1b (UniProt O49552); experiment: as above
T2 sequence: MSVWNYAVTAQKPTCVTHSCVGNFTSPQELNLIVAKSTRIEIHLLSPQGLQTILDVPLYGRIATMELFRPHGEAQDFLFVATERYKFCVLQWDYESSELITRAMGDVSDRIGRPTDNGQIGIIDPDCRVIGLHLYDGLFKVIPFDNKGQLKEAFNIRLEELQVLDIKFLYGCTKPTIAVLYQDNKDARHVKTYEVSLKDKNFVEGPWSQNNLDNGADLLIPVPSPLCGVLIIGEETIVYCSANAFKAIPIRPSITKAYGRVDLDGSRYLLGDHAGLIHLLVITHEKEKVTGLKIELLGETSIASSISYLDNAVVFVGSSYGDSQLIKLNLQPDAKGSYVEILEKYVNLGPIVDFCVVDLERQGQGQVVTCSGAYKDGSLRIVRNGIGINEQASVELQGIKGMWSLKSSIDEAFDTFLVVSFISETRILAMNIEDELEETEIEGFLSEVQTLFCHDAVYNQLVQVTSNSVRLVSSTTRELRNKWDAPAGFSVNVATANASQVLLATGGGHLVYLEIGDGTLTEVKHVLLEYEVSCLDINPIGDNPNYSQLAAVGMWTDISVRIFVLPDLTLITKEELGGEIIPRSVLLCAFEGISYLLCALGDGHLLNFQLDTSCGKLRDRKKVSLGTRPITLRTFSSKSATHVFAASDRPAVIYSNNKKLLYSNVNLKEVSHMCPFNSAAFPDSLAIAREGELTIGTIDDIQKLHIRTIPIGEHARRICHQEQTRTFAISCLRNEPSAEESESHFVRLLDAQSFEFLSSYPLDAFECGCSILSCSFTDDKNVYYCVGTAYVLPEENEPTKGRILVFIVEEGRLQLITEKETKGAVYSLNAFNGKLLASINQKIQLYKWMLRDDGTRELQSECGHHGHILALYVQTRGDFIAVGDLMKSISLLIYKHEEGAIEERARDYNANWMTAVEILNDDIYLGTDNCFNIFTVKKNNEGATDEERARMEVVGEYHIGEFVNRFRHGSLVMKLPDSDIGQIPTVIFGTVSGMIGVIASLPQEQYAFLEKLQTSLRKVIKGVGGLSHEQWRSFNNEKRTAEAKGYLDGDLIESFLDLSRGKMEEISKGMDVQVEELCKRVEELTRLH

Substance: YAO WD-repeat domain (Arabidopsis thaliana) (domain or fragment)
- binding [1]: no binding
- binding [2]: no binding
